The values below come from publication doi:10.1101/291294.

The chains behind the UniProt entries cited, without tags or fusion partners. Where a name states a change or a piece, a line headed by the entry shows the natural chain unless it says otherwise. Residues count along the entry.
UniProt P98170, whole entry: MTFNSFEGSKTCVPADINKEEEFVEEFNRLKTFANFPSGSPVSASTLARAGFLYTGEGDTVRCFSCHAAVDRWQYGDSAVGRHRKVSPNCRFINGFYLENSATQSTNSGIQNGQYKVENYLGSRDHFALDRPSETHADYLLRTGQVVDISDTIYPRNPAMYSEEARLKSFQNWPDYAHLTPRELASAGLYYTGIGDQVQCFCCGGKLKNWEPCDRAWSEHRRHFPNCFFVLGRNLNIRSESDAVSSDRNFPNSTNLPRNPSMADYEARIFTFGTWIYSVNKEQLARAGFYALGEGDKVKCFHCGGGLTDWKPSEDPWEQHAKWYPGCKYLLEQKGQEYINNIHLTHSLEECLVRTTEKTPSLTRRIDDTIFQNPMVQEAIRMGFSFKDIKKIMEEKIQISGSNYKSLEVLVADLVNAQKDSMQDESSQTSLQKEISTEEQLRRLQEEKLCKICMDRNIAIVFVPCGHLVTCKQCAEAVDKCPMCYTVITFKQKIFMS
UniProt P98170, 1-123: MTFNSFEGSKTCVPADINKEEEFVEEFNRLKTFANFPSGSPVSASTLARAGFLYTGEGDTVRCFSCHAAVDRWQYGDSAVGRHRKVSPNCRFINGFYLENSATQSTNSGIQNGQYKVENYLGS
UniProt P98170, 1-261: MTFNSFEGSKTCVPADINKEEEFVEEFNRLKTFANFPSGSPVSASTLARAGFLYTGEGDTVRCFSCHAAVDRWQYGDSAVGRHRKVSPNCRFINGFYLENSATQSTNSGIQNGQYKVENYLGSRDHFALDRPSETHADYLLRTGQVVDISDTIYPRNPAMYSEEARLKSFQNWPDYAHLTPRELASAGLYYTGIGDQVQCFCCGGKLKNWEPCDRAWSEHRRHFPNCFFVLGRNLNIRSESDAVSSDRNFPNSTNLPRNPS
UniProt P98170, 1-350: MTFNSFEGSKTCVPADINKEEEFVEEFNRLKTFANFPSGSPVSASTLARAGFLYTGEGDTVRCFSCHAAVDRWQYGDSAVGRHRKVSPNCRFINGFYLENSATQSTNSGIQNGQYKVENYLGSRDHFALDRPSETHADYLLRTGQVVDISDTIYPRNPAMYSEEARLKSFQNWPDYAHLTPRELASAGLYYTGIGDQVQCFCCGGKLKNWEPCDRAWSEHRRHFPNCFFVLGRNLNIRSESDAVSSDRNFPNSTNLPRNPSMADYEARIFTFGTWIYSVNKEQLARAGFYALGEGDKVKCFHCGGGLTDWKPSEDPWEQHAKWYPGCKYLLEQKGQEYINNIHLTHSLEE
UniProt P98170, 124-261: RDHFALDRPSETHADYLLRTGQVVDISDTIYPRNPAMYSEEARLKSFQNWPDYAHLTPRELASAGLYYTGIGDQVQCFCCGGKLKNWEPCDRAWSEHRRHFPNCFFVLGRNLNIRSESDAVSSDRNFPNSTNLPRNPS
UniProt P98170, 124-350: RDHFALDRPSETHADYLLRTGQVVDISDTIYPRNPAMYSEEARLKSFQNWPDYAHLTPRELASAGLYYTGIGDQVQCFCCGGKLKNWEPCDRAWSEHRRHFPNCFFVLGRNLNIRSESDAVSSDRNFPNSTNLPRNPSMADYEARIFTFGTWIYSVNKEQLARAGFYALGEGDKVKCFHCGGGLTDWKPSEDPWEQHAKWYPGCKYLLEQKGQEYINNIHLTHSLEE
UniProt P98170, 262-350: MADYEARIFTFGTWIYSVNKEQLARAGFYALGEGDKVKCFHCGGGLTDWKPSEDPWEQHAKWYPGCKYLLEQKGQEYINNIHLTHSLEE
UniProt P98170, 1-449, stated change not applied: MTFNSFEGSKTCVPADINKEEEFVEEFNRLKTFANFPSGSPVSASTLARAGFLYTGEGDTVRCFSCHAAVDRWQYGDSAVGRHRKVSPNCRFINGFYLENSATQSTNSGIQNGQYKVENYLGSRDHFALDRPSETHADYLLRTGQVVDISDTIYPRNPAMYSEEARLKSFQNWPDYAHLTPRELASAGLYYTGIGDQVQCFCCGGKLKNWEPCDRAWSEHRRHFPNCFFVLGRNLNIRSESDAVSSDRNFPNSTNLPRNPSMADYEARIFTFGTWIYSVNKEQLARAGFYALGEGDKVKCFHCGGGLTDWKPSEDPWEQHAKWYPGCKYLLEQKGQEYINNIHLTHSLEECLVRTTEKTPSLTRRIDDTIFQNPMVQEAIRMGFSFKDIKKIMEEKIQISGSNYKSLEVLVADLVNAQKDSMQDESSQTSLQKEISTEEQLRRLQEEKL
UniProt P98170, 262-497, stated change not applied: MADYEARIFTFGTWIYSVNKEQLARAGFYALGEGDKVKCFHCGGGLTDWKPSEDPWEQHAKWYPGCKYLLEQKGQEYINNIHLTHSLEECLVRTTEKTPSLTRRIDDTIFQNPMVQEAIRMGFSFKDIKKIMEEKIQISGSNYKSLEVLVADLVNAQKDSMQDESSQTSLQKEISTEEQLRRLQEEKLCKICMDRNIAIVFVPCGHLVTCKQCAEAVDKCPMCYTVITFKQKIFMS
UniProt P98170, 331-497, stated change not applied: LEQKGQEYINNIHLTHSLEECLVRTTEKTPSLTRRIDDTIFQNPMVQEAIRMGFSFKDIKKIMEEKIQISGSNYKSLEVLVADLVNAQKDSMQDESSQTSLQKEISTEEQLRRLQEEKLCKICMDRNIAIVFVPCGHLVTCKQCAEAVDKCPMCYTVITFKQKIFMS
UniProt Q9Y4G2, whole entry: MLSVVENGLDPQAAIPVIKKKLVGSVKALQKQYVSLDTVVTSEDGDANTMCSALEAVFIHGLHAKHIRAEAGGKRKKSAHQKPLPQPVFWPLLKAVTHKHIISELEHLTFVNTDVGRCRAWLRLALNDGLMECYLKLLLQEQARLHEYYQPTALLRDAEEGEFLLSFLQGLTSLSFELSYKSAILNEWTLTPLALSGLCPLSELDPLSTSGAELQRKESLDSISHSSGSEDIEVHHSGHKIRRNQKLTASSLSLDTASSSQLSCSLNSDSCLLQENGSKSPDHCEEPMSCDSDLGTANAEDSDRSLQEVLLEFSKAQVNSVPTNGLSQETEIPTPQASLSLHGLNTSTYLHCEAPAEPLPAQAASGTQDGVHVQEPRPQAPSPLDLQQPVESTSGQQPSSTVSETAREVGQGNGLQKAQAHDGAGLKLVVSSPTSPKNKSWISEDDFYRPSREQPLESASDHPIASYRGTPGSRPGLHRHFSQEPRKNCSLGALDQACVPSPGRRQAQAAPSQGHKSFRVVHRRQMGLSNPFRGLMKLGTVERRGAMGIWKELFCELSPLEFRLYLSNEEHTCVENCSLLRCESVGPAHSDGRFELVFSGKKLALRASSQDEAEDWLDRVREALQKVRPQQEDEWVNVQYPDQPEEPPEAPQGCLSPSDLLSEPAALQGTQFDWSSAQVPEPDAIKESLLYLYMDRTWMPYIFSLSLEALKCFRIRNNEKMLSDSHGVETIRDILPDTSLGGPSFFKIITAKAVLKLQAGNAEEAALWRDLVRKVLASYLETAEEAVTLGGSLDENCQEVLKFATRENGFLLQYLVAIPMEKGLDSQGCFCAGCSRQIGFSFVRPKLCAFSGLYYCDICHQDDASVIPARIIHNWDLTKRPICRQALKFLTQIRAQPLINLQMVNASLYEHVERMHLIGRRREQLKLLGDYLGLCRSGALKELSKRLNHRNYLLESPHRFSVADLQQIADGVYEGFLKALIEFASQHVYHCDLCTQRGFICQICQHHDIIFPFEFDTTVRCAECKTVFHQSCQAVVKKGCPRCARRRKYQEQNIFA
UniProt Q6ZNE5, whole entry: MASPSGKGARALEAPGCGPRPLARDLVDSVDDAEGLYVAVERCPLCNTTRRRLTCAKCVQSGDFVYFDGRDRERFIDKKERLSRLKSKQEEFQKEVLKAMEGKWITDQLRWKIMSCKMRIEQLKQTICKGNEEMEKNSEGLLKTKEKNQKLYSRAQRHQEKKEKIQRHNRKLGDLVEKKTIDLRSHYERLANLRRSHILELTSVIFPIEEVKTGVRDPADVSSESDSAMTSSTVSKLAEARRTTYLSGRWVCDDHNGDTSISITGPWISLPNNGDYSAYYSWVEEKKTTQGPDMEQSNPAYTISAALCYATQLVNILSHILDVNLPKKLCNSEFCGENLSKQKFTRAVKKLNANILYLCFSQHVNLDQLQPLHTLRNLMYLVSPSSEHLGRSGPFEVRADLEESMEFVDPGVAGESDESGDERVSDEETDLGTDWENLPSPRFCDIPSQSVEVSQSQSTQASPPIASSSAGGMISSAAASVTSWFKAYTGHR
UniProt P56962, whole entry: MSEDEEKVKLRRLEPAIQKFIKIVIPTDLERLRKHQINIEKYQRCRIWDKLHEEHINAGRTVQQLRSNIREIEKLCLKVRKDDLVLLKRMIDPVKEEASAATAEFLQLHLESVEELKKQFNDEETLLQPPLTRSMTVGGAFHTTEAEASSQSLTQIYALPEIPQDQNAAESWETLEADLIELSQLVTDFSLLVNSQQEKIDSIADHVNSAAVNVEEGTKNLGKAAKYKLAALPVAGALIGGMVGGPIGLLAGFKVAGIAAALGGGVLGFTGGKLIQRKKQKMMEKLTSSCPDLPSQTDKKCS
UniProt O95166, whole entry: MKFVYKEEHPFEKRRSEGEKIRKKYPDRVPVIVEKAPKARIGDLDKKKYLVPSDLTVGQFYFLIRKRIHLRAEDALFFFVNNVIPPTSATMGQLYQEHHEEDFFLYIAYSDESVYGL

Results are given in words; binding and its absence hold for the method and conditions named. Binding seen in cells or lysates may run through a third protein. Some entries that bind do so weakly or less than the wild type.

The first assay deals with GST-tagged human XIAP (human) (UniProt P98170). The experiment in a line: pull-down.
Turning to “GFP-fusion of PLEKHM1 (from UniProt Q9Y4G2 1-1056)”, the binding entry is reported as “no binding”. As for “GFP-fusion of ATG14 (from UniProt Q6ZNE5 1-492)”, the binding entry is recorded as “no binding”. GFP-STX17 (from UniProt P56962 1-302): the binding entry is reported as “binds”.

The next assay deals with GST-tagged human GABARAP (human) (UniProt O95166). Nature of the assay: pull-down.
For the substance “HA-XIAP BIR2 (aa 124-261) (from UniProt P98170 124-261) (domain or fragment)”, the binding result is recorded as “binds”. For the substance “HA-XIAP ΔBIR (aa 331-497) (from UniProt P98170 331-497) (domain or fragment)”, the binding entry is “binds”. As to “HA-XIAP BIR1-2-3 (aa 1-350) (from UniProt P98170 1-350) (domain or fragment)”, the binding entry was “binds”. In the case of “HA-XIAP BIR1-2 (aa 1-261) (from UniProt P98170 1-261) (domain or fragment)”, the binding result is on record as “binds”. “HA-XIAP BIR2-3 (aa 124-350) (from UniProt P98170 124-350) (domain or fragment)”: the binding entry is listed as “binds”. For the substance “HA-XIAP Δ2BIR (aa262-497) (from UniProt P98170 262-497) (domain or fragment)”, the binding result is recorded as “binds”. The same measure, in the same setting: under “HA-XIAP-BIR3 (aa 262-350) (from UniProt P98170 262-350) (domain or fragment)” stands “no binding”; under “HA-XIAPΔRING (aa 1-449) (from UniProt P98170 1-449) (domain or fragment)”, “binds”; under “HA-XIAP BIR1 (aa 1-123) (from UniProt P98170 1-123) (domain or fragment)”, “binds”. In the case of “HA-XIAP FL (aa1-497) (from UniProt P98170 1-497)”, the binding entry is recorded as “binds”. Turning to “HA-XIAP H467A (from UniProt P98170 1-497)”, the binding entry is “binds”.
